No constants are given. Whether binding was seen depends on the method and setting. In cells and extracts the contact can be indirect. Some results given as binding are weak or reduced against the parent protein; the word gives no strength.

The chains behind the UniProt entries cited, without tags or fusion partners.
UniProt Q09472: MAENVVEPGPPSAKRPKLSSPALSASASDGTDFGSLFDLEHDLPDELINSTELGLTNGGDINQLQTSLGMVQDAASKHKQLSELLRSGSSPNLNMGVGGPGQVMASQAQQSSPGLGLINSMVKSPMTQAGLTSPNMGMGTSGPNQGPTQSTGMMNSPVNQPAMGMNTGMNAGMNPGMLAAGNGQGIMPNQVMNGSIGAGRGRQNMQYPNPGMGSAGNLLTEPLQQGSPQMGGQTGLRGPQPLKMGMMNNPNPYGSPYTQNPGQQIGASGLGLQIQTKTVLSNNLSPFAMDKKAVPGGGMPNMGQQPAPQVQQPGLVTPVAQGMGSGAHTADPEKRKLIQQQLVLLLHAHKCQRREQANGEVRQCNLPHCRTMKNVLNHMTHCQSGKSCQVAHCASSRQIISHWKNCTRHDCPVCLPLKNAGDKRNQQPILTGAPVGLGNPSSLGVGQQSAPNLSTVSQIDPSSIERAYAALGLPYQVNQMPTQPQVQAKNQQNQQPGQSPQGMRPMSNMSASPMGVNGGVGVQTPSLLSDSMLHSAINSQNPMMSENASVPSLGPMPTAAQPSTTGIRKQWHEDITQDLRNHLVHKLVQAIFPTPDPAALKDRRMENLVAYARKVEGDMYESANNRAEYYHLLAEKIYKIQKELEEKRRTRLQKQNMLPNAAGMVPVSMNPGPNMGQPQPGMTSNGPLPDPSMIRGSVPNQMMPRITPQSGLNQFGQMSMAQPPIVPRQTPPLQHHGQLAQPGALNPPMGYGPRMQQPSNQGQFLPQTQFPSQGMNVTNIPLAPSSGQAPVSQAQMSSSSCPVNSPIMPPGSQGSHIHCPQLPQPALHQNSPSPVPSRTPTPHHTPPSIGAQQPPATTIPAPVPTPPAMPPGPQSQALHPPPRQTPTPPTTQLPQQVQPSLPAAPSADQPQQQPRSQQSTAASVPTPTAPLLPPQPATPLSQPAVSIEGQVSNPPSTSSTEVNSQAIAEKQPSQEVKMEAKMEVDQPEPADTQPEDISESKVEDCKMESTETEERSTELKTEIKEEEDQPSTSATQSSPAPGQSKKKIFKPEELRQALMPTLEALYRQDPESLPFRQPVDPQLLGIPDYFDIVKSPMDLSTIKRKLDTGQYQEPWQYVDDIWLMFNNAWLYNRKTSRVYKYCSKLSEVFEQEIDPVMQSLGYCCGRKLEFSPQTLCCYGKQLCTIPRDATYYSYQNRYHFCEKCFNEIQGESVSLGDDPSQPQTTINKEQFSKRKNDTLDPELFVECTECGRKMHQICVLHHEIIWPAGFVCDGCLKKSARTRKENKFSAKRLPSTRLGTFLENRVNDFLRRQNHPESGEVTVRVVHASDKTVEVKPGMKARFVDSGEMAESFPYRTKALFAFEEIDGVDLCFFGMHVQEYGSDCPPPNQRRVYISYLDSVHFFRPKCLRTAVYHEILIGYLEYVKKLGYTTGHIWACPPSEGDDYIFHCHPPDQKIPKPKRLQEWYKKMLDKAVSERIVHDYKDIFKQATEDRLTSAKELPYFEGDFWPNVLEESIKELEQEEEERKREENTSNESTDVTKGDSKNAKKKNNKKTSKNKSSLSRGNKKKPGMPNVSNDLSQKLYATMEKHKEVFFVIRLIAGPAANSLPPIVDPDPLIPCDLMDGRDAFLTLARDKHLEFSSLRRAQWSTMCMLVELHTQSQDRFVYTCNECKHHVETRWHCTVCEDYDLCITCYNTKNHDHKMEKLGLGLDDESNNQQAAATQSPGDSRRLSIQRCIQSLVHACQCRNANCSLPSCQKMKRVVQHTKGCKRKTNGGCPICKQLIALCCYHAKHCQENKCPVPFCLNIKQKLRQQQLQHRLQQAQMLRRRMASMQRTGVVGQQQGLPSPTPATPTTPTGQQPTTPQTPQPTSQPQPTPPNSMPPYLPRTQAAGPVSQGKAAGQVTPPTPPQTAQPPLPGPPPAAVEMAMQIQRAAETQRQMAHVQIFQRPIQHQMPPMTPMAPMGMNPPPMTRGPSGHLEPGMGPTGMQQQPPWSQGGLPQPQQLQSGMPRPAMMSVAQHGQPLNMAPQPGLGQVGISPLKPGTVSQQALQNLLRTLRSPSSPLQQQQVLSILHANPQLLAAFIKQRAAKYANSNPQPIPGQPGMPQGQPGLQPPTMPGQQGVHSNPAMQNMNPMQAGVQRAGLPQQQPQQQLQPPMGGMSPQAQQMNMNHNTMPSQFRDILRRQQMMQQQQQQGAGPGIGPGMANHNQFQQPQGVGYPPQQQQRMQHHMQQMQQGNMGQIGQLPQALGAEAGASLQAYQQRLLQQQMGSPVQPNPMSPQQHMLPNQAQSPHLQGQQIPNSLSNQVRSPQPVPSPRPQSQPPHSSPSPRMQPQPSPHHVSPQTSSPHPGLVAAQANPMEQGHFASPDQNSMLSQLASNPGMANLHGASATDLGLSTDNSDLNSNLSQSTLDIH
UniProt P40763: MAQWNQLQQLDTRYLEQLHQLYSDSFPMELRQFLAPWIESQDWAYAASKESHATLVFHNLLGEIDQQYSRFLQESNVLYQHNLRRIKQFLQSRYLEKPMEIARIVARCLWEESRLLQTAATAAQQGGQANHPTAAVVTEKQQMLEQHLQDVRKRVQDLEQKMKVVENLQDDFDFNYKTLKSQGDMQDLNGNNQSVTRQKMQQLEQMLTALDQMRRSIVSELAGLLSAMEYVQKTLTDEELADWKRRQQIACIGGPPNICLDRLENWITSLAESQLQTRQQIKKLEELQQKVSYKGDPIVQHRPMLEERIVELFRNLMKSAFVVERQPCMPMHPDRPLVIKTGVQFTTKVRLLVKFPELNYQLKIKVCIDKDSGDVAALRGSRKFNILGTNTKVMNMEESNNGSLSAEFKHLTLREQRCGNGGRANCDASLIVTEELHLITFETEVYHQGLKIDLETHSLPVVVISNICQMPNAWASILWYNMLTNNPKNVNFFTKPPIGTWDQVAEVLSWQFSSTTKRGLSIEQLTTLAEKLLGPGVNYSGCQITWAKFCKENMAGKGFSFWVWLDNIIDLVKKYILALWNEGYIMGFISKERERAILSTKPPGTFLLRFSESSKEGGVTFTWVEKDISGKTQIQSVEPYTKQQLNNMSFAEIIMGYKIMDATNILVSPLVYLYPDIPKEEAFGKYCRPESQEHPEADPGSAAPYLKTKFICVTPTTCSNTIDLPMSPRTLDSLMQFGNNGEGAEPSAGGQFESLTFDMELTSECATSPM

The experiment has as its target p300 (human (endogenous in amnion fibroblasts)) (UniProt Q09472). The experiment in a line: co-IP; 10 ug nuclear protein of human amnion fibroblasts treated with or without cortisol (1 uM; 12 h); precipitated with rabbit antibody against p300 overnight at 4 C, protein A agarose beads; STAT3, GR and CREB detected by Western blotting; pre-immune IgG as negative control.

As to “signal transducer and activator of transcription 3 (from UniProt P40763 1-770)”, the binding result was “binds”.
